Data reported in paper PMC11594422.
No constants are given. Whether binding was seen depends on the method and setting. In cells and extracts the contact can be indirect. Sequences can lack the tags named with a protein.

Chains of the proteins cited; added tags and fusions are not shown.
UniProt P26358: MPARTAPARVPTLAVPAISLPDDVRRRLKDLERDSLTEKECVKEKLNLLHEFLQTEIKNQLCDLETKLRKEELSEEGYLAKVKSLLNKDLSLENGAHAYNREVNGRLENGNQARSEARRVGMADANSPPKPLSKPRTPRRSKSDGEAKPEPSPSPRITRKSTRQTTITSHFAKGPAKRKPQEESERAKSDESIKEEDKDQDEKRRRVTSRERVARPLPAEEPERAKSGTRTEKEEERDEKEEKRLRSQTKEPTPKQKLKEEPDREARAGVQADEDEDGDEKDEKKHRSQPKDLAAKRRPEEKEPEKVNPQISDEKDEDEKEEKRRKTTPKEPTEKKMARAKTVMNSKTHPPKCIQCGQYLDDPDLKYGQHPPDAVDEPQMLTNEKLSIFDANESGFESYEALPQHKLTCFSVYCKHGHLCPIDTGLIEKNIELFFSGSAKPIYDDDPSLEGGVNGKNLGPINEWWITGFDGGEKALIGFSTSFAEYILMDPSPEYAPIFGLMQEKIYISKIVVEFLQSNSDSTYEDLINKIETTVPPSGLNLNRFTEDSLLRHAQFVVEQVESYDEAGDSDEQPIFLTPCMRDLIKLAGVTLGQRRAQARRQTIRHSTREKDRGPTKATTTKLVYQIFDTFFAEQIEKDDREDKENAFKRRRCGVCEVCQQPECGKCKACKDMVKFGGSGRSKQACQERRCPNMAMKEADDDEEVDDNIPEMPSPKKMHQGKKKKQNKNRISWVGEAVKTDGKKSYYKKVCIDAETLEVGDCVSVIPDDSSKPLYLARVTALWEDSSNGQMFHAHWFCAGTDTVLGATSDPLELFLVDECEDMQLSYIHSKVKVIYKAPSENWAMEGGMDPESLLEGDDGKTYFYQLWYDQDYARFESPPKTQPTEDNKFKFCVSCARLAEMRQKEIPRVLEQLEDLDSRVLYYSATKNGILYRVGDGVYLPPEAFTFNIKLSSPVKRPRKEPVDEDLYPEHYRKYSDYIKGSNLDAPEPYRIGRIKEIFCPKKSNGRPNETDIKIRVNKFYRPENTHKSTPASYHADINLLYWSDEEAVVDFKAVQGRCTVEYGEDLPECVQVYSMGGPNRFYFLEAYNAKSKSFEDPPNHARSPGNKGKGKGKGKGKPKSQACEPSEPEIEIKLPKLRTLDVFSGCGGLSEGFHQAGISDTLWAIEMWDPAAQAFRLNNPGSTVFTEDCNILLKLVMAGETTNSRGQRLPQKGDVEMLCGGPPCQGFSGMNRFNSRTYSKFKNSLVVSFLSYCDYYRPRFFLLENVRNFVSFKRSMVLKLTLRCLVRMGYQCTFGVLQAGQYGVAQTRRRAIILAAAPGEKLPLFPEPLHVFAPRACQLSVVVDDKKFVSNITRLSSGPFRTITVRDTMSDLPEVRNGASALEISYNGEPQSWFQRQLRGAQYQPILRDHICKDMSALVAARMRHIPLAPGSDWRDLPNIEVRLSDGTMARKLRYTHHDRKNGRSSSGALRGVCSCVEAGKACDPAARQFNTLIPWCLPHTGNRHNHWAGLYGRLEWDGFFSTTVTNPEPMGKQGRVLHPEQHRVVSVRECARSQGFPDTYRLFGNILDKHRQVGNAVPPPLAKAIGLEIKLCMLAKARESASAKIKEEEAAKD

Target: DNA methyltransferase 1 (DNMT1) (human (endogenous in HEK293T)) (UniProt P26358)
Assay: co-IP; HEK293T lysates in WB/IP buffer (50 mM Tris pH 7.5, 1% Triton X-100, 150 mM NaCl) 48 h after transfection; primary antibody 2 h at 4°C, protein G agarose overnight at 4°C, western blot; anti-DNMT1 antibody for NS1, NS2 and NS1-70 (Fig 5B, 6D), IP antibody of Fig 5A not told; with or without HBoV transfection (pHBoV-NS1KO or pHBoV-NP1KO)

B1: FLAG tagged NP1 of human bocavirus 1 (FLAG-NP1) (protein, UniProt Q3YPH5 1-219)
chain: MSSGNMKDKHRSYKRKGSPERGERKRHWQTTHHRSRSRSPIRHSGERGSGSYHQEHPISHLSSCTASKTSDQVMKTRESTSGKKDNRTNPYTVFSQHRASNPEAPGWCGFYWHSTRIARDGTNSIFNEMKQQFQQLQIDNKIGWDNTRELLFNQKKTLDQKYRNMFWHFRNNSDCERCNYWDDVYRRHLANVSSQTEADEITDEEMLSAAESMEADASN
For B1, the binding was “no binding”.
